These are yes or no findings as the source states them, for the method shown. Binding seen in cells or lysates may run through a third protein. Some entries that bind do so weakly or less than the wild type.
Molecular target: T1, Calcium/calmodulin-dependent protein kinase IV (CaMK4), mouse (mouse (endogenous in RAW264.7 and BMDMs)) (UniProt P08414)
T1 sequence: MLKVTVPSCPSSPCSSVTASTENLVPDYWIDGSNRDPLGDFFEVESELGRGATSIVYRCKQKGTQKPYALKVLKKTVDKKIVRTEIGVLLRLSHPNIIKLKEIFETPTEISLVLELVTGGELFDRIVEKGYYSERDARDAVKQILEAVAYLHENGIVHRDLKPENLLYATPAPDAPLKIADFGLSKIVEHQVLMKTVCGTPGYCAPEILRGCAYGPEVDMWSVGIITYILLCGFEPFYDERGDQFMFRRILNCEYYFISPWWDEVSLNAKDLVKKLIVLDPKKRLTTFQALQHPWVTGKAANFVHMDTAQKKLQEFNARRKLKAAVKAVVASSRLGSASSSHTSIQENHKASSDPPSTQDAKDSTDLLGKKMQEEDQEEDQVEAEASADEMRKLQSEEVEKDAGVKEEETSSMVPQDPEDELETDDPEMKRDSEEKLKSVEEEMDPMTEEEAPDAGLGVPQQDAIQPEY
Assay: co-IP; mouse BMDMs; forward and reverse co-IP, western blot

The chains behind the UniProt entries cited, without tags or fusion partners.
UniProt O88444: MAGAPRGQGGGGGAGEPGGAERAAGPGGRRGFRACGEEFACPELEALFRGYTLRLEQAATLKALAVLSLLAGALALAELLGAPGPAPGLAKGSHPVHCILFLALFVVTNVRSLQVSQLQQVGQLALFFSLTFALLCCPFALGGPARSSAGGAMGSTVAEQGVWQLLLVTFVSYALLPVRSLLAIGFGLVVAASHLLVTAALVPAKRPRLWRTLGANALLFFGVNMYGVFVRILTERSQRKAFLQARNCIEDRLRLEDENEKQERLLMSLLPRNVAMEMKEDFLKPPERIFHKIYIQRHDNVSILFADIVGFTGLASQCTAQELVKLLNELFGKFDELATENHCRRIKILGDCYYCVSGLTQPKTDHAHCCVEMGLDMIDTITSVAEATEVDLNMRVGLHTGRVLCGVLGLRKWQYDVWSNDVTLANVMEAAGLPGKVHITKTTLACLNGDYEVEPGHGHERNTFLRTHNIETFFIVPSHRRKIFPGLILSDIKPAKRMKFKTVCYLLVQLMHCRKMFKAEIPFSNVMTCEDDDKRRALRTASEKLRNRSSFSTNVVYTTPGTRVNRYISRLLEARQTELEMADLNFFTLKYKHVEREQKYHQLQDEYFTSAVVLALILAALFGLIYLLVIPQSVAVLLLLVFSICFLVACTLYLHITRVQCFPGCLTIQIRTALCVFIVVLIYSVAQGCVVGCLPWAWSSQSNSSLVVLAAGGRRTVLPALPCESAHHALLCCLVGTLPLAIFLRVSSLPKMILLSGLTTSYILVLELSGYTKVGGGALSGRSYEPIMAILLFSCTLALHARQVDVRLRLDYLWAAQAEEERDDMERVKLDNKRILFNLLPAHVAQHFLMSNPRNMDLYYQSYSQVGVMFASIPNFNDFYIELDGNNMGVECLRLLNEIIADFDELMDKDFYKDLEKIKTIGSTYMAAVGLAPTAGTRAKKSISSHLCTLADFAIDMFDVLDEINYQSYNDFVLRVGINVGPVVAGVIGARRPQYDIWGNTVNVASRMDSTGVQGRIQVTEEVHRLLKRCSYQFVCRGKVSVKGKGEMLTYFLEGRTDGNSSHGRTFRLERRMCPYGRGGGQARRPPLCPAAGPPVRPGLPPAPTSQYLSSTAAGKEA

For “adenylyl cyclase 1 (ADCY1), mouse (from UniProt O88444 1-1118) (enzyme)”, the binding was “binds”.

Source: PMC9307837
